This assay addresses Flag-tagged IGF2BP3 (IGF2BP3^Flag) (UniProt O00425). Description: co-IP; HEK293T cells co-transfected with His-tagged OLFML1 and Flag-tagged IGF2BP3 constructs (whole or truncated); IP with anti-Flag or anti-His; immunoblot with anti-Flag or anti-His.

Amino acid sequences for entries named in this document (tags omitted).
UniProt O00425: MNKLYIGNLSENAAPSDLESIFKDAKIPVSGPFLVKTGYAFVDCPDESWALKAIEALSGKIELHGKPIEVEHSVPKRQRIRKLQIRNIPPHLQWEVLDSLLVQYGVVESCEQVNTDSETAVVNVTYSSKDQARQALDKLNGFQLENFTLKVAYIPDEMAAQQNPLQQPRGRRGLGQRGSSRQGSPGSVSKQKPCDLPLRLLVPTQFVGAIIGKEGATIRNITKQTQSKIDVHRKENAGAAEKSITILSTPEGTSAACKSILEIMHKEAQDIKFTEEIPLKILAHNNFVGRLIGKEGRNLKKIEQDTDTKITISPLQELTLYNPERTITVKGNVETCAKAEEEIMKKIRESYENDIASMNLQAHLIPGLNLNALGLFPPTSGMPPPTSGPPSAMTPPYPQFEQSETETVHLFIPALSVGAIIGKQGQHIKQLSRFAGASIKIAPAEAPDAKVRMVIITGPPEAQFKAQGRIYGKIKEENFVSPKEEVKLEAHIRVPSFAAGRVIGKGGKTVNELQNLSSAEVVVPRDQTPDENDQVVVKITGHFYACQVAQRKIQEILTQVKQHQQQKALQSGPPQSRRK

Our source for the binding values is publication PMC12320246.

These are yes or no findings as the source states them, for the method shown. In cells and extracts the contact can be indirect. Some entries that bind do so weakly or less than the wild type. Where a sequence is shown, tags or fusion partners need not be part of it.

B1: OLF-like truncation of His-OLFML1 (Olfactomedin-like domain, amino acids 140-402) (domain or fragment, UniProt Q6UWY5 140-402)
chain: SCDNMLMGIKSLKIVKKMMDTHGSWMKDAVYNSPKVYLLIGSRNNTVWEFANIRAFMEDNTKPAPRKQILTLSWQGTGQVIYKGFLFFHNQATSNEIIKYNLQKRTVEDRMLLPGGVGRALVYQHSPSTYIDLAVDEHGLWAIHSGPGTHSHLVLTKIEPGTLGVEHSWDTPCRSQDAEASFLLCGVLYVVYSTGGQGPHRITCIYDPLGTISEEDLPNLFFPKRPRSHSMIHYNPRDKQLYAWNEGNQIIYKLQTKRKLPLK
Consider B1, for which the binding result was “binds”.
